# Experimental data reported in the supplement of paper PMC8728848.
# Some of the results follow.
# B1: LERP (Drosophila melanogaster), B7Z0Q8 (protein)
# chain: MRCSLQKDCAAPTQENFRQMRFPIVISLLLLLFCSGESVAADAANQLKFSTTECKLKEPIYGSTFDFSGLHSDLAHVVKSMNIGGDQFEFNICGNLSRTCNGESNVAACLKRQGKEYILGRQHELFYNNGNMFLKYKSGAKCDNGTADKPNYQLHVMFSCDYTLDAQPMHVTPYANEVCSFYISYRTPLACLSIPEGLQSNSCRVGDTKSNGTFDLMPLSDSNYHTSNRQGAFFVINVCKPVLYGENSMCPAGSSVCLFDSKATNPKERFINFGNVQTHPVVEKGQLLLRHESPTPCAKNSSANYTSVIYFSCDKFIRNAHPEFAGLGADSCTYQFNFATPLACNDLKPCTAFTSTNELLDLSSLSSKPARTLLKDGKNYTIAVCAHAGAPCQENGGACYEQNSTTISLGNSNSQLRFNQTGSLYLLYEDGAECSTATGMRRWSTKIEFVCANNATKDNGASTAGGSDSLKIIEDSNCQLLIQYQTPLACREPIRCKATTYVDHTNDGLGSSGDELIDLTPLISATDNYEARVELPASMEHLVPKTTKFFLNVCRPLVPKYQLGCAGGSAACMAKVTAAGAPEEERSMGFPLVSLTQRNRTFAELAYLKGDPCPTDNTSELSTHILFNCNMRAGRGQPVLRSVEDCAYRFEWETNVFCPPHECTFSADTCDLVHDELGRRFNFKSAPFTKDGKIEIDYNATKMSVNICGAHRKAMTDYSQALVNIFFTHESPNCGREGTMNVQIRLICSDQTESSSTISSDQQCNLLYVQRTPSICEFLSLGATQQNFESNGSTSSSTSSSSTSTTTSTTTQASPAGKPTKAATSTTTTTVGPDPAATPIGPTASVGTILGAILSVTFCVTCLGLLAFSPARRQRIRRLFRRSNSAVRYSRVQSNEEANLLLEPNGEFTESDDDMLL
# Tests used:
# Assay in all cases: glycan array binding signal (z-score within array); higher = stronger binding
# Conditions in all cases: glycan notation: IUPAC condensed, linker removed
# Fuc(a1-2)[Gal(a1-3)]Gal = target: Fuc(a1-2)[Gal(a1-3)]Gal
# Summary of the method: (§1)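 Glycan array data came from 3228 arrays in the Consortium for Functional Glycomics database, and only arrays with an available protein sequence were kept. Glycan names were put into IUPAC-condensed notation, and columns mapping to the same glycan were averaged. The binding signal is a within-array Z-score, averaged across arrays of one protein sequence run at different concentrations or buffers and across linkers. A negative Z-score can be read as non-binding.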
# [1] = target: Fuc(a1-2)[Gal(a1-3)]Gal(b1-3)GlcNAc
# Summary of the method: as §1
# [2] = target: Fuc(a1-2)[Gal(a1-3)]Gal(b1-3)GlcNAc(b1-2)Man(a1-3)[Fuc(a1-2)[Gal(a1-3)]Gal(b1-3)GlcNAc(b1-2)Man(a1-6)]Man(b1-4)GlcNAc(b1-4)GlcNAc
# Summary of the method: as §1
# [3] = target: Fuc(a1-2)[Gal(a1-3)]Gal(b1-4)Glc
# Summary of the method: as §1
# [4] = target: Fuc(a1-2)[Gal(a1-3)]Gal(b1-4)GlcNAc
# Summary of the method: as §1
# [5] = target: Fuc(a1-2)[Gal(a1-3)]Gal(b1-4)GlcNAc(b1-2)Man(a1-3)[Fuc(a1-2)[Gal(a1-3)]Gal(b1-4)GlcNAc(b1-2)Man(a1-6)]Man(b1-4)GlcNAc(b1-4)GlcNAc
# Summary of the method: as §1
# [6] = target: Fuc(a1-2)[Gal(a1-3)]Gal(b1-4)[Fuc(a1-3)]GlcNAc
# Summary of the method: as §1
# [7] = target: Fuc(a1-2)[Gal(a1-4)]Gal(b1-4)GlcNAc
# Summary of the method: as §1
# [8] = target: Fuc(a1-2)[GalNAc(a1-3)]Gal
# Summary of the method: as §1
# [9] = target: Fuc(a1-2)[GalNAc(a1-3)]Gal(b1-3)GalNAc(a1-3)[Fuc(a1-2)]Gal(b1-4)GlcNAc
# Summary of the method: as §1
# [10] = target: Fuc(a1-2)[GalNAc(a1-3)]Gal(b1-3)GlcNAc
# Summary of the method: as §1
# [11] = target: Fuc(a1-2)[GalNAc(a1-3)]Gal(b1-3)GlcNAc(b1-2)Man(a1-3)[Fuc(a1-2)[GalNAc(a1-3)]Gal(b1-3)GlcNAc(b1-2)Man(a1-6)]Man(b1-4)GlcNAc(b1-4)GlcNAc
# Summary of the method: as §1
# [12] = target: Fuc(a1-2)[GalNAc(a1-3)]Gal(b1-4)Glc
# Summary of the method: as §1
# [13] = target: Fuc(a1-2)[GalNAc(a1-3)]Gal(b1-4)GlcNAc
# Summary of the method: as §1
# [14] = target: Fuc(a1-2)[GalNAc(a1-3)]Gal(b1-4)GlcNAc(b1-2)Man(a1-3)[Fuc(a1-2)[GalNAc(a1-3)]Gal(b1-4)GlcNAc(b1-2)Man(a1-6)]Man(b1-4)GlcNAc(b1-4)GlcNAc
# Summary of the method: as §1
# [15] = target: Fuc(a1-2)[GalNAc(a1-3)]Gal(b1-4)GlcNAc(b1-3)Gal(b1-4)GlcNAc
# Summary of the method: as §1
# [16] = target: Fuc(a1-2)[GalNAc(a1-3)]Gal(b1-4)GlcNAc(b1-3)Gal(b1-4)GlcNAc(b1-3)Gal(b1-4)GlcNAc
# Summary of the method: as §1
# [17] = target: Fuc(a1-2)[GalNAc(a1-3)]Gal(b1-4)[Fuc(a1-3)]GlcNAc
# Summary of the method: as §1
# [18] = target: Fuc(a1-2)[GalNAc(a1-4)]Gal(b1-4)GlcNAc
# Summary of the method: as §1
# [19] = target: Fuc(a1-2)[GalNAc(b1-3)]Gal
# Summary of the method: as §1
# Fuc(a1-3)GlcNAc = target: Fuc(a1-3)GlcNAc
# Summary of the method: as §1
# [20] = target: Fuc(a1-3)[Gal(b1-4)]Glc6S
# Summary of the method: as §1
# [21] = target: Fuc(a1-3)[Gal(b1-4)]GlcNAc
# Summary of the method: as §1
# [22] = target: Fuc(a1-3)[Gal(b1-4)]GlcNAc(b1-2)Man(a1-3)[Fuc(a1-3)[Gal(b1-4)]GlcNAc(b1-2)Man(a1-6)]Man(b1-4)GlcNAc(b1-4)GlcNAc
# Summary of the method: as §1
# [23] = target: Fuc(a1-3)[Gal(b1-4)]GlcNAc(b1-3)Gal(b1-3)[Fuc(a1-4)]GlcNAc
# Summary of the method: as §1
# [24] = target: Fuc(a1-3)[Gal(b1-4)]GlcNAc(b1-3)GalNAc
# Summary of the method: as §1
# [25] = target: Fuc(a1-3)[Gal(b1-4)]GlcNAc(b1-4)Gal(b1-4)[Fuc(a1-3)]GlcNAc
# Summary of the method: as §1
# [26] = target: Fuc(a1-3)[Gal(b1-4)]GlcNAc(b1-4)Gal(b1-4)[Fuc(a1-3)]GlcNAc(b1-4)Gal(b1-4)[Fuc(a1-3)]GlcNAc
# Summary of the method: as §1
# [27] = target: Fuc(a1-3)[Gal(b1-4)]GlcNAc(b1-6)[Gal(b1-3)GlcNAc(b1-3)]Gal(b1-4)Glc
# Summary of the method: as §1
# [28] = target: Fuc(a1-3)[Gal(b1-4)]GlcNAc6S
# Summary of the method: as §1
binder,measurement,setting,value
B1,glycan array binding signal (z-score),Fuc(a1-2)[Gal(a1-3)]Gal,0.417
same,glycan array binding signal (z-score),[1],1.17
same,glycan array binding signal (z-score),[2],-0.398
same,glycan array binding signal (z-score),[3],-1
same,glycan array binding signal (z-score),[4],1.07
same,glycan array binding signal (z-score),[5],0.988
same,glycan array binding signal (z-score),[6],0.981
same,glycan array binding signal (z-score),[7],0.206
same,glycan array binding signal (z-score),[8],0.38
same,glycan array binding signal (z-score),[9],-1
same,glycan array binding signal (z-score),[10],-0.249
same,glycan array binding signal (z-score),[11],-0.758
same,glycan array binding signal (z-score),[12],-0.054
same,glycan array binding signal (z-score),[13],0.43
same,glycan array binding signal (z-score),[14],1.91
same,glycan array binding signal (z-score),[15],1.31
same,glycan array binding signal (z-score),[16],-0.17
same,glycan array binding signal (z-score),[17],1.65
same,glycan array binding signal (z-score),[18],-0.461
same,glycan array binding signal (z-score),[19],-0.534
same,glycan array binding signal (z-score),Fuc(a1-3)GlcNAc,-0.507
same,glycan array binding signal (z-score),[20],-0.768
same,glycan array binding signal (z-score),[21],-0.319
same,glycan array binding signal (z-score),[22],-0.527
same,glycan array binding signal (z-score),[23],-0.349
same,glycan array binding signal (z-score),[24],0.32
same,glycan array binding signal (z-score),[25],1.21
same,glycan array binding signal (z-score),[26],-0.153
same,glycan array binding signal (z-score),[27],0.093
same,glycan array binding signal (z-score),[28],0.023

# A stretch from further up, as a working copy:
binder,measurement,setting,value
B1,glycan array binding signal (z-score),[13],0.43
same,glycan array binding signal (z-score),[14],1.91
